The list shows a part of the results.
Key:
Test in all cases: log2 fold change, soluble protein after heating vs DMSO (PISA); higher = thermal stabilisation; K562 lysate, 10 uM; active = over 0.2 and 3.5 SD of the protein, either way, in both replicates (recomputed)
[1] = compound: C1=CC=C(C=C1)[C@H](COC2=CC3=C(C=C2)NC(=O)N3)NC(=O)C4=CC=CN(C4=O)CC5=CC(=C(C=C5)F)F
Procedure, shortened: (§1)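 Thermal stability, expressed as log-two fold change relative to solvent controls, is given from duplicates. Crude K562 extract in PBS pH 7.4 with 1 mM MgCl2, at 1 mg/mL protein, was treated with 10 μM compound for 30 min and heated in aliquots for 3 min across 48°C-58°C. After pooling, adjustment to 0.5% NP-40 at 4°C and centrifugation at 21,000xg for 90 min, supernatant protein was measured by TMTpro 16plex LC-MS/MS with channel sums equalised.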

Sequences of proteins named here, by UniProt entry; tags and fusion partners are left off. A change or cut given only in a name is not applied to a line headed by its entry.
UniProt Q9H0U3: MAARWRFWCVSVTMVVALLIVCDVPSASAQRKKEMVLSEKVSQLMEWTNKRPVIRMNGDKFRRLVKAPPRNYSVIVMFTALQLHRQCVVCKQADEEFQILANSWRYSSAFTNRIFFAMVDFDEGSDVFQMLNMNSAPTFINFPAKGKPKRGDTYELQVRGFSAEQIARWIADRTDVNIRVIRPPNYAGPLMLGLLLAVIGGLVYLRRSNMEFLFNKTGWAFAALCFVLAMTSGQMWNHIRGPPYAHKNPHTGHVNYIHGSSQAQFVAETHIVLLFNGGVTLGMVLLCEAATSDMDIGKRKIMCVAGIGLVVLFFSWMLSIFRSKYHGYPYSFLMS
UniProt Q92585: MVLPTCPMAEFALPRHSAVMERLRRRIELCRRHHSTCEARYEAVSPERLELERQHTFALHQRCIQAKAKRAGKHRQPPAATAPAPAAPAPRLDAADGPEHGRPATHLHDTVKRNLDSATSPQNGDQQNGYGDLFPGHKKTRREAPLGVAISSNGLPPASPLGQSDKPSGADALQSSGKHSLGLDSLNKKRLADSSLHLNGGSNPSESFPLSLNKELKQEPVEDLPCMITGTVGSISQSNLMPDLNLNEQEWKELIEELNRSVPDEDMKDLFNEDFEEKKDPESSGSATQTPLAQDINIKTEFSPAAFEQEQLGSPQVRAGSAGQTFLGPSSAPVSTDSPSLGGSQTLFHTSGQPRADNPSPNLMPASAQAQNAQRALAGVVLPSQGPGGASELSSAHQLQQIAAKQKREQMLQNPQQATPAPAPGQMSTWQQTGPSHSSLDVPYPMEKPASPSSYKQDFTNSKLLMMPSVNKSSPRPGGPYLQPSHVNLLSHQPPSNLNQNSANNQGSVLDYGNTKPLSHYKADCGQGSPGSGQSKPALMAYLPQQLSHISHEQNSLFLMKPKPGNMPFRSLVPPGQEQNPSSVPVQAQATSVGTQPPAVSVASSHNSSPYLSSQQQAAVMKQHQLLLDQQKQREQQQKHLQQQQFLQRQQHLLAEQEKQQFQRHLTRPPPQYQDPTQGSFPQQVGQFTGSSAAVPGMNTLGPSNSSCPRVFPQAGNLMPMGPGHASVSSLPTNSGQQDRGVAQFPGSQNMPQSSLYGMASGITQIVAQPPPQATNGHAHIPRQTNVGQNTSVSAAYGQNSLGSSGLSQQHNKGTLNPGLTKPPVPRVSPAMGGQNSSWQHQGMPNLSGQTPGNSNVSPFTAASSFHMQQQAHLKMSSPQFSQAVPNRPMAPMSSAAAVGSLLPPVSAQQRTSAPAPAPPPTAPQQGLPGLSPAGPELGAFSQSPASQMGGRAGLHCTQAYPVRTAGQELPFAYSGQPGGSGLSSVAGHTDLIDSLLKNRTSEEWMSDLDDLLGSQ
UniProt Q9Y6R4: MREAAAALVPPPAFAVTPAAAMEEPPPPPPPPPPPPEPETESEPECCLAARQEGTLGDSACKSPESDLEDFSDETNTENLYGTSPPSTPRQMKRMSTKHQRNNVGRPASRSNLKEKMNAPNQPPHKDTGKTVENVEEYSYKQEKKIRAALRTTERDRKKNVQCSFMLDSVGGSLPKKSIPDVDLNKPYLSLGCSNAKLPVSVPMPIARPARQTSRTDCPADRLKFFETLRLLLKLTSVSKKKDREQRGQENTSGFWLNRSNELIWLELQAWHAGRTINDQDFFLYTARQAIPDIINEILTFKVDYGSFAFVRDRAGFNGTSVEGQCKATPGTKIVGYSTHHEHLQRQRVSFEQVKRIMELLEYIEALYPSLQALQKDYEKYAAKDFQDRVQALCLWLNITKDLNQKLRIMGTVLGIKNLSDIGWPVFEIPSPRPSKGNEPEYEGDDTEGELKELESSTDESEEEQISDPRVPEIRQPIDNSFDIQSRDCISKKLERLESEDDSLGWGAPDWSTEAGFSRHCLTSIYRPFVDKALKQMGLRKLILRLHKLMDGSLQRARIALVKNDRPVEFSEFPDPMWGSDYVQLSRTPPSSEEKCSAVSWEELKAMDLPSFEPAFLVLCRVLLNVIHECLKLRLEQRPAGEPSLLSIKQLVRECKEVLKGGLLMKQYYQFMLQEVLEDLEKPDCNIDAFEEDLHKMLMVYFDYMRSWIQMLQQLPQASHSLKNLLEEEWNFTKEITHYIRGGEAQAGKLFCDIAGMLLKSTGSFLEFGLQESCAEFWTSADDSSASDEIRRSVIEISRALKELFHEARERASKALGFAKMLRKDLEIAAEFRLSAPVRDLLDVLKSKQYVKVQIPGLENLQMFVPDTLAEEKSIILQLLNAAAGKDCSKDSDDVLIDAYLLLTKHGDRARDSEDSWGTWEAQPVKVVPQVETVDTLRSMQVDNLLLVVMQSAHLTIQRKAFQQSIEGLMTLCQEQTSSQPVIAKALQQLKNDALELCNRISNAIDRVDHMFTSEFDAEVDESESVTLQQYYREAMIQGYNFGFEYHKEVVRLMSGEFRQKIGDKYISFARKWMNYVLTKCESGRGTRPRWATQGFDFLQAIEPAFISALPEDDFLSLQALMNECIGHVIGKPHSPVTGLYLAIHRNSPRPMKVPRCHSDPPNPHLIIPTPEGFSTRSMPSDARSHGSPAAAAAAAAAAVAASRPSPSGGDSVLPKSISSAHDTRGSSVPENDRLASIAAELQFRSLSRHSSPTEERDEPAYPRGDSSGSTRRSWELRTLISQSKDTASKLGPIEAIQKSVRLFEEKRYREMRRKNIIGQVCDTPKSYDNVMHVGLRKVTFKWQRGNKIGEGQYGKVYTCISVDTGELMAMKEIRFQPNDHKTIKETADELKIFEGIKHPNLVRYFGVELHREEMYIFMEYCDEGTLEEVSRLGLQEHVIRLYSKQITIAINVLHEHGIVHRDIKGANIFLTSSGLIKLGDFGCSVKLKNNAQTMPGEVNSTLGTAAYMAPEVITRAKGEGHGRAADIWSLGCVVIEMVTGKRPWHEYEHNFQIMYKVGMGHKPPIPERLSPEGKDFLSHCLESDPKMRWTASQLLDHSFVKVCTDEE
UniProt Q16659, whole entry, looked up: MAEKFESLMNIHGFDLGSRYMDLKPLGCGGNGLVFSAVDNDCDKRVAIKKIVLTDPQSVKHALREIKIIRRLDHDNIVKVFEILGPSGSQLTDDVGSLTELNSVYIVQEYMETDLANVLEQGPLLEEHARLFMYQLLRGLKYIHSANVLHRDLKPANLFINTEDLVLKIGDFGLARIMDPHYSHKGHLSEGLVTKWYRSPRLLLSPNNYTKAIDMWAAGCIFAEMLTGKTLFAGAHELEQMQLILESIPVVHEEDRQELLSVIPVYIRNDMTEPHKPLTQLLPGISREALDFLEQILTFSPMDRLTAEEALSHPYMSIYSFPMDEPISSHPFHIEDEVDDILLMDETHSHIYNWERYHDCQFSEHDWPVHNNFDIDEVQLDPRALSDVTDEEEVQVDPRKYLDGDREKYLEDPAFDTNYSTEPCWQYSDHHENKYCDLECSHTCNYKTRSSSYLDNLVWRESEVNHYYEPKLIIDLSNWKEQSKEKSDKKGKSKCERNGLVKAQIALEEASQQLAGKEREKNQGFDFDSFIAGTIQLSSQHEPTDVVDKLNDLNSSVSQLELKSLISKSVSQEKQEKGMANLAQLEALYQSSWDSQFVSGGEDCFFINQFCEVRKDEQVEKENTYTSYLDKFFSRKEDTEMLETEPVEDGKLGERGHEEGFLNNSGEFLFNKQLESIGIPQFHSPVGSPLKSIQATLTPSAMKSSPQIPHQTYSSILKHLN
UniProt Q13163: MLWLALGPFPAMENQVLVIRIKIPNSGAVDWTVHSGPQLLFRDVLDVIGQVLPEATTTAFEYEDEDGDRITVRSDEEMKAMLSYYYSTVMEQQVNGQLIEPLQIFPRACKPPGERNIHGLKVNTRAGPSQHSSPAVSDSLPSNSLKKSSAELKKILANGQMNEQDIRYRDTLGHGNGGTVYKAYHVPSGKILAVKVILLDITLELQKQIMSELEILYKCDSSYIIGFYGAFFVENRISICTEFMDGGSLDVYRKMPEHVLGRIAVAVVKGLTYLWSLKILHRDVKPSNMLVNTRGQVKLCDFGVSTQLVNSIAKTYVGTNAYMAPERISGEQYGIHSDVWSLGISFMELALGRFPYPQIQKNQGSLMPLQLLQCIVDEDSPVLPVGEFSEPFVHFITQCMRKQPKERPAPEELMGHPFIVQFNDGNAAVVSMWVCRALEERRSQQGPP
UniProt Q8IWC1: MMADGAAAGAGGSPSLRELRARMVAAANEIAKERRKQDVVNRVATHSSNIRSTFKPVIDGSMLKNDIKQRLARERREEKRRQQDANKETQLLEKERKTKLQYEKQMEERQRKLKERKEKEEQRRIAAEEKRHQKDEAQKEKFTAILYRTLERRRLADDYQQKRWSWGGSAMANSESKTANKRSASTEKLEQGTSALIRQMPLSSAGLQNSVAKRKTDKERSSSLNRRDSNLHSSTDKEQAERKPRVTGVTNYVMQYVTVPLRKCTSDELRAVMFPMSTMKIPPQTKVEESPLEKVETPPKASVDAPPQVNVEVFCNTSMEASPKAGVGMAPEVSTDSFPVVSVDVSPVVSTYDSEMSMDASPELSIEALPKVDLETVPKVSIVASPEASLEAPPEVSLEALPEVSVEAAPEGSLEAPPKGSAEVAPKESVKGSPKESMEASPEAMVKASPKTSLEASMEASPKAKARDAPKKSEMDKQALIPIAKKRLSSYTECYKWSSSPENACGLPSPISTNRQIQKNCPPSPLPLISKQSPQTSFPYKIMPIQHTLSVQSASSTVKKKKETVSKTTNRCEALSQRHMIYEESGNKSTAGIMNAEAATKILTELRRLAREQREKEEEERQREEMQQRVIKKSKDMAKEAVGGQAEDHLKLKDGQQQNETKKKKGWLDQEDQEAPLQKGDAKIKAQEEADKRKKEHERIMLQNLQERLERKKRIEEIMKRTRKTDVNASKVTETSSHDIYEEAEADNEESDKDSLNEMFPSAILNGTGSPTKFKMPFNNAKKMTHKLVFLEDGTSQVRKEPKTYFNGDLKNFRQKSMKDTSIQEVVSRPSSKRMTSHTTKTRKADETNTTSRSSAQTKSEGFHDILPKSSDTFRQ
UniProt Q96GX5: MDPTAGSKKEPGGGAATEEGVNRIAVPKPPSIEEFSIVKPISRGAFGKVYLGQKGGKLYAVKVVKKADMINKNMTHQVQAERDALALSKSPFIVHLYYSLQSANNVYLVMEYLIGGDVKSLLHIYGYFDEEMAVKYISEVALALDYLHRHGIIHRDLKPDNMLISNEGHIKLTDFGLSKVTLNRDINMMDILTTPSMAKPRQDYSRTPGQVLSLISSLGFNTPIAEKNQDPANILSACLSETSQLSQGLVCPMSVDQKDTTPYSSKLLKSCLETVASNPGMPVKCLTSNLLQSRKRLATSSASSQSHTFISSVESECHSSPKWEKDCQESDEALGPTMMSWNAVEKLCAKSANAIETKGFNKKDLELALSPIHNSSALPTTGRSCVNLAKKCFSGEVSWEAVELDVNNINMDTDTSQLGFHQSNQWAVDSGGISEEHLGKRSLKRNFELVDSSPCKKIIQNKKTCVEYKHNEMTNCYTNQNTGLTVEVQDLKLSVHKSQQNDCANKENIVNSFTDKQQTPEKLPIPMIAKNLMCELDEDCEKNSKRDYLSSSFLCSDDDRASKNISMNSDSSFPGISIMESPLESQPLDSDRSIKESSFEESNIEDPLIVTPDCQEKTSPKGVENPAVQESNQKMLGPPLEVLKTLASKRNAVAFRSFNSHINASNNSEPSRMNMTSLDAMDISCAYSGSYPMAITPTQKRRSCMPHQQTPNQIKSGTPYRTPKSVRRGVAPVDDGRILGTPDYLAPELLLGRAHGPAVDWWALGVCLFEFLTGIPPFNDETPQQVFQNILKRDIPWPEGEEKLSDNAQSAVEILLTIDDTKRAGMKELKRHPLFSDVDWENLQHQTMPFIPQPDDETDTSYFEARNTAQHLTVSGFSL
UniProt P07948: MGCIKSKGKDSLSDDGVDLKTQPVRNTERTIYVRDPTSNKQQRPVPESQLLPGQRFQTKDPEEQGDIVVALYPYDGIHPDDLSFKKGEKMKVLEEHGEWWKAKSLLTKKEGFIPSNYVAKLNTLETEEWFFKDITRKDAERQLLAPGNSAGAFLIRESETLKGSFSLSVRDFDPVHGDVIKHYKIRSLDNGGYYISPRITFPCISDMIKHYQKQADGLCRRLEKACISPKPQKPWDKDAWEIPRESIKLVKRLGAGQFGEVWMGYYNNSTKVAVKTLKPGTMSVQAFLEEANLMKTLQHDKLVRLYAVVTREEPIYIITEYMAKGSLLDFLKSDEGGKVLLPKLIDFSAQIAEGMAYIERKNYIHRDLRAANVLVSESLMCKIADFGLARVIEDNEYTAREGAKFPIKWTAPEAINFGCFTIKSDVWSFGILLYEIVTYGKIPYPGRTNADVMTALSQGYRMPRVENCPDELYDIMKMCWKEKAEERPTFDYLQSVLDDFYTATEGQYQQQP
UniProt Q8WV07: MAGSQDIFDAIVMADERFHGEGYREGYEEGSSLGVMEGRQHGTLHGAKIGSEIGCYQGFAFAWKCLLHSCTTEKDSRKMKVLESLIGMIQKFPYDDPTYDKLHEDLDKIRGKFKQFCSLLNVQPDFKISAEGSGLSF

[2] = compound: CC1=C(SC2=C1C(=N[C@H](C3=NN=C(N32)C)CC(=O)N)C4=CC=C(C=C4)Cl)C
Procedure, shortened: as §1

[3] = compound: CC1=C2C(=CC=C1)N=C(N(C2=O)C3=CC=CC=C3C)CN4C=NC5=C(N=CN=C54)N
Procedure, shortened: as §1

[4] = compound: Cc1sc2c(c1C)C(c1ccc(Cl)cc1)=N[C@@H](CC(=O)OC(C)(C)C)c1nnc(C)n1-2
Procedure, shortened: as §1

[5] = compound: c1ccc([C@@H]2C[C@H]2NC2CCNCC2)cc1
Procedure, shortened: as §1

Measured: log2 fold change

MAPK9 (UniProt P45984)
inactive: [1] -0.021 | [2] 0.013 | [3] 0.045 | [4] -0.071 | [5] 0.033

MARS2 (UniProt Q96GW9)
inactive: [1] 0.016 | [2] 0.04 | [3] -0.025 | [4] 0.006 | [5] -0.006

MAGT1 (UniProt Q9H0U3)
inactive: [1] 0.03 | [2] 0.021 | [3] 0.005 | [4] -0.013 | [5] -0.017

MAPKAPK2 (UniProt P49137)
inactive: [1] 0.043 | [2] 0.008 | [3] -0.053 | [4] 0.004 | [5] -0.051

M6PR (UniProt P20645)
inactive: [1] -0.015 | [2] 0.009 | [3] -0.053 | [4] -0.038 | [5] -0.088

MAN2C1 isoform 4 (UniProt Q9NTJ4)
inactive: [1] 0.042 | [2] 0.017 | [3] -0.001 | [4] -0.125 | [5] -0.012

MAML1 (UniProt Q92585)
inactive: [1] 0.029 | [2] 0.127 | [3] -0.057 | [4] -0.145 | [5] -0.011

MAP3K4 (UniProt Q9Y6R4)
inactive: [1] 0.012 | [2] -0.079 | [3] -0.001 | [4] -0.03 | [5] -0.008

LUC7L (UniProt Q9NQ29)
inactive: [1] 0.011 | [2] 0.013 | [3] 0.006 | [4] 0.003 | [5] 0.055

LZTFL1 (UniProt Q9NQ48)
inactive: [1] 0.009 | [2] 0.028 | [3] -0.005 | [4] -0.011 | [5] 0.03

MARK3 (UniProt P27448)
inactive: [1] 0.02 | [2] 0.069 | [3] 0.118 | [4] -0.06 | [5] 0.053

MAPK6 (UniProt Q16659)
inactive: [1] 0.062 | [2] -0.015 | [3] -0.016 | [4] -0.001 | [5] -0.037

LUC7L2 (UniProt Q9Y383)
inactive: [1] 0.017 | [2] 0.001 | [3] 0.012 | [4] 0.027 | [5] 0.068

MAGI1 isoform 6 (UniProt Q96QZ7)
inactive: [1] -0.001 | [2] -0.002 | [3] 0.018 | [4] 0.014 | [5] 0.01

MARF1 (UniProt Q9Y4F3)
inactive: [1] -0.052 | [2] 0.013 | [3] 0.175 | [4] 0.024 | [5] -0.023

MAGEC1 (UniProt O60732)
inactive: [1] -0.013 | [2] 0.014 | [3] 0.007 | [4] -0.008 | [5] 0.013

MAST2 (UniProt Q6P0Q8)
inactive: [1] -0.257 | [2] 0.027 | [3] 0.073 | [4] -0.074 | [5] -0.028

MAP2K5 (UniProt Q13163)
inactive: [1] -0.046 | [2] 0.155 | [3] -0.045 | [4] -0.407 | [5] -0.02

MAP2K2 (UniProt P36507)
inactive: [1] -0.04 | [2] 0.022 | [3] -0.047 | [4] -0.068 | [5] 0.064

MAP1A (UniProt P78559)
inactive: [1] 0.018 | [2] 0.023 | [3] -0.01 | [4] -0.01 | [5] -0.007

MAPRE2 (UniProt Q15555)
inactive: [1] 0.037 | [2] 0.013 | [3] -0.046 | [4] 0.009 | [5] 0.046

MAPK8 isoform 3 (UniProt P45983)
inactive: [1] -0.01 | [2] 0.03 | [3] 0.004 | [4] 0.071 | [5] -0.026

MAGEB1 (UniProt P43366)
inactive: [1] 0.003 | [2] 0.023 | [3] -0.011 | [4] -0.008 | [5] 0.029

LTA4H (UniProt P09960)
inactive: [1] 0.026 | [2] -0.024 | [3] -0.026 | [4] 0.006 | [5] 0.029

MAP1B (UniProt P46821)
inactive: [1] 0.02 | [2] 0.004 | [3] -0.02 | [4] -0.009 | [5] -0.018

MAP4K2 (UniProt Q12851)
inactive: [1] -0.088 | [2] 0.053 | [3] 0.022 | [4] -0.13 | [5] -0.087

MACO1 (UniProt Q8N5G2)
inactive: [1] -0.039 | [2] -0.044 | [3] 0.125 | [4] -0.04 | [5] 0.092

MARCHF6 (UniProt O60337)
inactive: [1] -0.269 | [2] -0.192 | [3] -0.107 | [4] -0.082 | [5] 0.029

MAPRE3 (UniProt Q9UPY8)
inactive: [1] -0.039 | [2] -0.003 | [3] -0.029 | [4] 0.081 | [5] 0.139

MAP2K7 isoform 4 (UniProt O14733)
inactive: [1] -0.072 | [2] -0.261 | [3] -0.038 | [4] 0.066 | [5] 0.079

MACF1 isoform 3 (UniProt Q9UPN3)
inactive: [1] -0.001 | [2] 0.002 | [3] 0.027 | [4] -0.011 | [5] 0

MAP3K2 (UniProt Q9Y2U5)
inactive: [1] 0.034 | [2] -0.006 | [3] 0.126 | [4] -0.098 | [5] 0.042

LYSMD2 (UniProt Q8IV50)
inactive: [1] 0.067 | [2] -0.025 | [3] -0.077 | [4] 0.003 | [5] -0.035

MARCHF5 (UniProt Q9NX47)
inactive: [1] 0.061 | [2] -0.002 | [3] -0.026 | [4] 0.032 | [5] -0.154

MAP4K5 (UniProt Q9Y4K4)
inactive: [1] 0.069 | [2] 0.063 | [3] -0.079 | [4] -0.022 | [5] -0.1

MAP7D3 (UniProt Q8IWC1)
inactive: [1] 0.056 | [2] 0.057 | [3] -0.091 | [4] 0.015 | [5] -0.05

MAN1A1 (UniProt P33908)
inactive: [1] 0.056 | [2] -0.029 | [3] -0.056 | [4] -0.049 | [5] -0.017

MAP11 (UniProt Q8WVR3)
inactive: [1] -0.103 | [2] 0 | [3] -0.006 | [4] 0.063 | [5] -0.03

MAD2L2 (UniProt Q9UI95)
inactive: [1] -0.032 | [2] -0.006 | [3] -0.018 | [4] -0.085 | [5] 0.096

2 successive entries out of the list so far, quoted:
MAP11 (UniProt Q8WVR3)
inactive: [1] -0.103 | [2] 0 | [3] -0.006 | [4] 0.063 | [5] -0.03

MAD2L2 (UniProt Q9UI95)
inactive: [1] -0.032 | [2] -0.006 | [3] -0.018 | [4] -0.085 | [5] 0.096

Next part

LUC7L3 (UniProt O95232)
inactive: [1] 0.009 | [2] 0.009 | [3] 0.024 | [4] -0.075 | [5] 0.016

MAP2K1 (UniProt Q02750)
inactive: [1] -0.012 | [2] 0.016 | [3] -0.047 | [4] -0.048 | [5] 0.081

MANF (UniProt P55145)
inactive: [1] 0.01 | [2] -0.027 | [3] -0.022 | [4] 0.003 | [5] 0.001

MANEA (UniProt Q5SRI9)
inactive: [1] 0.146 | [2] -0.009 | [3] 0.044 | [4] 0.029 | [5] -0.161

MANBA (UniProt O00462)
inactive: [1] -0.004 | [2] 0.007 | [3] 0.049 | [4] -0.088 | [5] -0.02

MAPK3 (UniProt P27361)
inactive: [1] 0.008 | [2] 0.006 | [3] -0.05 | [4] 0.036 | [5] -0.048

MAN2A1 (UniProt Q16706)
inactive: [1] 0.021 | [2] -0.046 | [3] -0.015 | [4] -0.021 | [5] 0.017

LYSMD1 (UniProt Q96S90)
inactive: [1] 0.029 | [2] 0.019 | [3] 0.048 | [4] -0.006 | [5] -0.031

MAIP1 (UniProt Q8WWC4)
inactive: [1] -0.077 | [2] 0.032 | [3] -0.019 | [4] -0.019 | [5] -0.005

2 entries picked at random from the list so far, as already listed:
MANBA (UniProt O00462)
inactive: [1] -0.004 | [2] 0.007 | [3] 0.049 | [4] -0.088 | [5] -0.02

MAN2A1 (UniProt Q16706)
inactive: [1] 0.021 | [2] -0.046 | [3] -0.015 | [4] -0.021 | [5] 0.017

Following part.

MAPRE1 (UniProt Q15691)
inactive: [1] -0.016 | [2] -0.023 | [3] -0.034 | [4] 0.02 | [5] 0.06

MASTL (UniProt Q96GX5)
inactive: [1] 0.036 | [2] -0.055 | [3] 0.134 | [4] 0.01 | [5] -0.016

LYN (UniProt P07948)
inactive: [1] -0.063 | [2] -0.103 | [3] -0.091 | [4] -0.032 | [5] 0.011

MAP1LC3B2 (UniProt A6NCE7)
inactive: [1] -0.051 | [2] 0.007 | [3] -0.001 | [4] 0.048 | [5] -0.019

LTO1 (UniProt Q8WV07)
inactive: [1] -0.021 | [2] -0.232 | [3] 0.027 | [4] 0.036 | [5] -0.041

From the supplement of paper PMC10849652
